Test results taken from ChEMBL document CHEMBL4316593 (Eur J Med Chem, 2019).
The source gives many values for each of these; only a part stands here.

How the values were obtained:
Assay type in all cases: cell-based
Conditions in all cases: U-87MG ATCC
[1] = Inhibition of RTK/PI3K/AKT/mTOR signaling in human U87 cells assessed as down regulation of ETV3 gene expression at cytotoxic IC50 measured after 48 hrs relative to control
[2] = Inhibition of RTK/PI3K/AKT/mTOR signaling in human U87 cells assessed as down regulation of NUP98 gene expression at cytotoxic IC50 measured after 48 hrs relative to control
[3] = Inhibition of RTK/PI3K/AKT/mTOR signaling in human U87 cells assessed as down regulation of VPS50 gene expression at cytotoxic IC50 measured after 48 hrs relative to control
[4] = Inhibition of RTK/PI3K/AKT/mTOR signaling in human U87 cells assessed as down regulation of FAM126A gene expression at cytotoxic IC50 measured after 48 hrs relative to control
[5] = Inhibition of RTK/PI3K/AKT/mTOR signaling in human U87 cells assessed as down regulation of ARFGEF1 gene expression at cytotoxic IC50 measured after 48 hrs relative to control
[6] = Inhibition of RTK/PI3K/AKT/mTOR signaling in human U87 cells assessed as down regulation of SRSF3 gene expression at cytotoxic IC50 measured after 48 hrs relative to control
[7] = Inhibition of RTK/PI3K/AKT/mTOR signaling in human U87 cells assessed as up regulation of aldo-keto reductase family 1 member A1 gene expression at cytotoxic IC50 measured after 48 hrs relative to control
[8] = Inhibition of RTK/PI3K/AKT/mTOR signaling in human U87 cells assessed as down regulation of TTC7A gene expression at cytotoxic IC50 measured after 48 hrs relative to control
[9] = Inhibition of RTK/PI3K/AKT/mTOR signaling in human U87 cells assessed as up regulation of RPL12 gene expression at cytotoxic IC50 measured after 48 hrs relative to control
[10] = Inhibition of RTK/PI3K/AKT/mTOR signaling in human U87 cells assessed as up regulation of methyltransferase like 8 gene expression at cytotoxic IC50 measured after 48 hrs relative to control
[11] = Inhibition of RTK/PI3K/AKT/mTOR signaling in human U87 cells assessed as up regulation of NEURL1 gene expression at cytotoxic IC50 measured after 48 hrs relative to control
[12] = Inhibition of RTK/PI3K/AKT/mTOR signaling in human U87 cells assessed as down regulation of AP2S1 gene expression at cytotoxic IC50 measured after 48 hrs relative to control
[13] = Inhibition of RTK/PI3K/AKT/mTOR signaling in human U87 cells assessed as up regulation of adhesion G protein-coupled receptor A2 gene expression at cytotoxic IC50 measured after 48 hrs relative to control
[14] = Inhibition of RTK/PI3K/AKT/mTOR signaling in human U87 cells assessed as up regulation of filamin B gene expression at cytotoxic IC50 measured after 48 hrs relative to control
[15] = Inhibition of RTK/PI3K/AKT/mTOR signaling in human U87 cells assessed as down regulation of PAPD5 gene expression at cytotoxic IC50 measured after 48 hrs relative to control
[16] = Inhibition of RTK/PI3K/AKT/mTOR signaling in human U87 cells assessed as up regulation of 5'-nucleotidase domain containing 2 gene expression at cytotoxic IC50 measured after 48 hrs relative to control
[17] = Inhibition of RTK/PI3K/AKT/mTOR signaling in human U87 cells assessed as down regulation of C21orf91 gene expression at cytotoxic IC50 measured after 48 hrs relative to control
[18] = Inhibition of RTK/PI3K/AKT/mTOR signaling in human U87 cells assessed as up regulation of EH domain containing 2 gene expression at cytotoxic IC50 measured after 48 hrs relative to control
[19] = Inhibition of RTK/PI3K/AKT/mTOR signaling in human U87 cells assessed as up regulation of SH3PXD2A gene expression at cytotoxic IC50 measured after 48 hrs relative to control
[20] = Inhibition of RTK/PI3K/AKT/mTOR signaling in human U87 cells assessed as down regulation of CSTF3 gene expression at cytotoxic IC50 measured after 48 hrs relative to control
[21] = Inhibition of RTK/PI3K/AKT/mTOR signaling in human U87 cells assessed as up regulation of KCNQ4 gene expression at cytotoxic IC50 measured after 48 hrs relative to control
[22] = Inhibition of RTK/PI3K/AKT/mTOR signaling in human U87 cells assessed as up regulation of small G protein signaling modulator 2 gene expression at cytotoxic IC50 measured after 48 hrs relative to control
[23] = Inhibition of RTK/PI3K/AKT/mTOR signaling in human U87 cells assessed as up regulation of adaptor related protein complex 1 sigma 1 subunit gene expression at cytotoxic IC50 measured after 48 hrs relative to control
[24] = Inhibition of RTK/PI3K/AKT/mTOR signaling in human U87 cells assessed as down regulation of S100A11 gene expression at cytotoxic IC50 measured after 48 hrs relative to control
[25] = Inhibition of RTK/PI3K/AKT/mTOR signaling in human U87 cells assessed as up regulation of adhesion G protein-coupled receptor L1 gene expression at cytotoxic IC50 measured after 48 hrs relative to control
[26] = Inhibition of RTK/PI3K/AKT/mTOR signaling in human U87 cells assessed as up regulation of CYP2R1 gene expression at cytotoxic IC50 measured after 48 hrs relative to control
[27] = Inhibition of RTK/PI3K/AKT/mTOR signaling in human U87 cells assessed as up regulation of TMED7 gene expression at cytotoxic IC50 measured after 48 hrs relative to control
[28] = Inhibition of RTK/PI3K/AKT/mTOR signaling in human U87 cells assessed as down regulation of MAP3K9 gene expression at cytotoxic IC50 measured after 48 hrs relative to control
[29] = Inhibition of RTK/PI3K/AKT/mTOR signaling in human U87 cells assessed as up regulation of BHLHA15 gene expression at cytotoxic IC50 measured after 48 hrs relative to control
[30] = Inhibition of RTK/PI3K/AKT/mTOR signaling in human U87 cells assessed as down regulation of VRK1 gene expression at cytotoxic IC50 measured after 48 hrs relative to control
[31] = Inhibition of RTK/PI3K/AKT/mTOR signaling in human U87 cells assessed as down regulation of ARHGAP1 gene expression at cytotoxic IC50 measured after 48 hrs relative to control
[32] = Inhibition of RTK/PI3K/AKT/mTOR signaling in human U87 cells assessed as down regulation of SHOC2 gene expression at cytotoxic IC50 measured after 48 hrs relative to control

## CC(=O)C(=NNc1ccccc1C#N)C(C)=O
[1]
  log2FC: -0.886
[2]
  log2FC: -0.424
[3]
  log2FC: -0.895
[4]
  log2FC: -0.587
[5]
  log2FC: -0.637
[6]
  log2FC: -0.351
[7]
  log2FC: 0.742
[8]
  log2FC: -1.07
[9]
  log2FC: 0.337
[10]
  log2FC: 0.772
[11]
  log2FC: 2.9
[12]
  log2FC: -0.556
[13]
  log2FC: 1.55
[14]
  log2FC: 0.727
[15]
  log2FC: -0.82
[16]
  log2FC: 0.986
[17]
  log2FC: -0.769
[18]
  log2FC: 0.917
[19]
  log2FC: 1.68
[20]
  log2FC: -1.2
[21]
  log2FC: 1.72
[22]
  log2FC: 0.902
[23]
  log2FC: 0.937
[24]
  log2FC: -0.48
[25]
  log2FC: 1.28
[26]
  log2FC: 1.81
[27]
  log2FC: 0.545
[28]
  log2FC: -1.11
[29]
  log2FC: 3.83
[30]
  log2FC: -0.699
[31]
  log2FC: -0.563
[32]
  log2FC: -0.611
